From patent US12421207B2 (CMG Pharmaceutical Co., Ltd., priority 2022, dated 2025)
Structures were worked out from names or drawings and are uncertain.

Amino acid sequences for entries named in this document (tags omitted). Residues count along the entry.
UniProt Q12866, 21-999 limits assumed: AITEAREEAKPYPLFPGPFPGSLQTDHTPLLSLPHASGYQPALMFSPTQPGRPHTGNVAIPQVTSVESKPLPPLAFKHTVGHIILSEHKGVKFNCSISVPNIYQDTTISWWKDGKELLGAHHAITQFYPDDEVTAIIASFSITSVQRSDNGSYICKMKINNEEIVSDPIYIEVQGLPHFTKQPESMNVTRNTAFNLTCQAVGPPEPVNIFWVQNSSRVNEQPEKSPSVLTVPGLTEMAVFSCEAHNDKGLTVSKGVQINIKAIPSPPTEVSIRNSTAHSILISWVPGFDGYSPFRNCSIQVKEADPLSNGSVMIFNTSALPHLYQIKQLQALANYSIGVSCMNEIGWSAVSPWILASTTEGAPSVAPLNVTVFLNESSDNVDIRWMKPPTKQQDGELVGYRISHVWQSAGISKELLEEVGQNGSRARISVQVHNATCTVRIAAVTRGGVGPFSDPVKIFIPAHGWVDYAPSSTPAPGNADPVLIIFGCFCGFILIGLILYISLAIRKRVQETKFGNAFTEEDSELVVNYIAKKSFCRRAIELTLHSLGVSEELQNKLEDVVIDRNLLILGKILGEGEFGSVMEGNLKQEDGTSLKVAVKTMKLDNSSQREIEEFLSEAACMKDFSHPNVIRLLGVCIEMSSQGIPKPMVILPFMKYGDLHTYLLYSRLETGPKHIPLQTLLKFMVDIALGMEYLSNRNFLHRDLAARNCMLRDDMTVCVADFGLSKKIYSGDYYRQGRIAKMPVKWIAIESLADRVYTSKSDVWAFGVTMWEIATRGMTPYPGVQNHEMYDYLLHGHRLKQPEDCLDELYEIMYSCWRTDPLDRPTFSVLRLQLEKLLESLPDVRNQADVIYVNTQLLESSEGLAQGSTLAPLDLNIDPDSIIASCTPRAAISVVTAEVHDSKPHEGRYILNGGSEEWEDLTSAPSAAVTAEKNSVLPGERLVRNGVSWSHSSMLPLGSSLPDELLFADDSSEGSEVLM
UniProt P30530, 26-894 limits assumed: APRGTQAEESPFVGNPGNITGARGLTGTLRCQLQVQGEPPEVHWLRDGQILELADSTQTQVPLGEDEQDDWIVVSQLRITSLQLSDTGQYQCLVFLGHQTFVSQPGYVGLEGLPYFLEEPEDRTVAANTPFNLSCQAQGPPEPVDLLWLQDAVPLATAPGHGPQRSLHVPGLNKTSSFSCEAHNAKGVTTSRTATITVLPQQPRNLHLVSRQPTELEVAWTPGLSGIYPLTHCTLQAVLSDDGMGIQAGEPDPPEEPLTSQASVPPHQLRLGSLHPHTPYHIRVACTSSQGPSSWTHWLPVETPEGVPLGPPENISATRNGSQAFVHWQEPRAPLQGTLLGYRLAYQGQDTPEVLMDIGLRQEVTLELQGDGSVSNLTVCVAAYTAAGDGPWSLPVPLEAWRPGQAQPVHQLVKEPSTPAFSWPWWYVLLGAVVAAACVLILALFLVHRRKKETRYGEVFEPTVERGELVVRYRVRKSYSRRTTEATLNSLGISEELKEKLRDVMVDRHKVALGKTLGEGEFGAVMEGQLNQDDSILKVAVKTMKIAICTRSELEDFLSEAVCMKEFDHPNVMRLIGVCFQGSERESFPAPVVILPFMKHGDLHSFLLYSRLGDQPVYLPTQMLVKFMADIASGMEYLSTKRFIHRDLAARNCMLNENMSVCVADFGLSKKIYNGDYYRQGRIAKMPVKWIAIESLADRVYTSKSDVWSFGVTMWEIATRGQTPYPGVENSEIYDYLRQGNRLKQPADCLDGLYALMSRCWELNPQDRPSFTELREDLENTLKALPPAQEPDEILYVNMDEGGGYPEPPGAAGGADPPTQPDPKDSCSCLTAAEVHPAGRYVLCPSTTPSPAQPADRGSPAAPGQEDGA
UniProt P08581, 25-1390 limits assumed: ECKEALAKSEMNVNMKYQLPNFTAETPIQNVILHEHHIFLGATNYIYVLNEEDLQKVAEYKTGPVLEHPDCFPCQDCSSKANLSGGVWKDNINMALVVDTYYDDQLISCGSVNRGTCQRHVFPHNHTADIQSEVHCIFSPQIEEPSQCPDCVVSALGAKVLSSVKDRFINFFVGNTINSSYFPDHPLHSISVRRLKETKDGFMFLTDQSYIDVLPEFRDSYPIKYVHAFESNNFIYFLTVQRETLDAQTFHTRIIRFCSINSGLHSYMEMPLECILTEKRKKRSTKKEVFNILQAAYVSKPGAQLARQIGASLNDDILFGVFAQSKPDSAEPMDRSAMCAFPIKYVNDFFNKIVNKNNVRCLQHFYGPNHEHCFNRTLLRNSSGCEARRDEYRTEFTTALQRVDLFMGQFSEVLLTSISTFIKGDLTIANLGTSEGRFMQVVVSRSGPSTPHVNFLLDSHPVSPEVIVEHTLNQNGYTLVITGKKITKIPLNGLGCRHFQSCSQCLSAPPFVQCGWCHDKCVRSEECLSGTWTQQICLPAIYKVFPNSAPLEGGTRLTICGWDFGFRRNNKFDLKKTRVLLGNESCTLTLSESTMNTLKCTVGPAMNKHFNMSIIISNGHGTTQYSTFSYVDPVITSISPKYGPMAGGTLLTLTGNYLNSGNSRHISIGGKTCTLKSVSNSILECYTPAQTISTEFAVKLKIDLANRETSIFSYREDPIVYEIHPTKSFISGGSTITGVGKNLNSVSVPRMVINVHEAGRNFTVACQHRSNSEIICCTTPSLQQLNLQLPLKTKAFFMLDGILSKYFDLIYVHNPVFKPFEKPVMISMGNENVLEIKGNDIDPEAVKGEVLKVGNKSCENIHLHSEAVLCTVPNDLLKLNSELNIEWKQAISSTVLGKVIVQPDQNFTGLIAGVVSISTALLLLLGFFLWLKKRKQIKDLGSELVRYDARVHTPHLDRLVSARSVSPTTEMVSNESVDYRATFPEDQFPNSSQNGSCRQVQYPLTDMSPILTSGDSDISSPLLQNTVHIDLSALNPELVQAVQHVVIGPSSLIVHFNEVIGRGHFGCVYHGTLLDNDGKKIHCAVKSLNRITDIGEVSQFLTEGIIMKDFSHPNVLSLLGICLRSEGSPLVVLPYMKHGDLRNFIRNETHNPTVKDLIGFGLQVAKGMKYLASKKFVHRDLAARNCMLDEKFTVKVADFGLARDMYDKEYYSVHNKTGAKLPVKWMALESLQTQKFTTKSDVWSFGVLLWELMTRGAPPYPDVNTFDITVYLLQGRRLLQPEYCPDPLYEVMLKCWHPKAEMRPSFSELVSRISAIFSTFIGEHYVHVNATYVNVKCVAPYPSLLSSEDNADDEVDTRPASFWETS

Assays:
[1] = system: HCC827/GR cells; assay: Cell viability assay (CellTiter-Glo 2.0), gefitinib-resistant HCC827/GR cells; assay type: cell-based, human; details: read-out: Relative cell viability; IC50 HCC827GR; Table 4; 72 h drug treatment, combinations of EGFR TKIs and inhibitor of Formula (I)
[2] = system: HCC827/OR cells; assay: Cell viability assay (CellTiter-Glo 2.0), osimertinib-resistant HCC827/OR cells; assay type: cell-based, human; details: read-out: Relative cell viability; IC50 HCC827OR; Table 4; 72 h drug treatment, combinations of EGFR TKIs and inhibitor of Formula (I)
Source text: (§1) To explore c-MET and AXL mechanisms of EGFR TKI resistance, resistant cells of the EGFR TKI hypersensitive EGFR exon 19 mutant NSCLC cell line, HCC827 and PC9 were generated by exposing these cells to increasing concentrations of EGFR TKI for over 3 months.
(§2) The human cell line HCC827 was purchased from the American Type Culture Collection (Manassas, VA), and the PC9 cell line was obtained from RIKEN Cell Bank (Ibaraki, Japan). The HCC827/ER, HCC827/GR, HCC827/OR, and PC9/ER cells, which contain deletions in the EGFR exon 19 and the c-MET and AXL overexpression, were developed from HCC827 or PC9 cells by stepwise exposure to gefitinib, erlotinib, and osimertinib. Gefitinib-resistant cells were referred to as HCC827/GR. Erlotinib-resistant cells were referred to as PC9/ER, HCC827/ER. Osimertinib-resistant cells were referred to as HCC827/OR.
(§3) Cell viability assays were carried out by plating 1,000 cells per well of HCC827 or PC9 resistant cells, respectively, into white transparent-bottom 384-well plates. The cells were treated with each TKI across a 10-dose range from 1 nM to 10,000 nM. After 72 h of drug treatment, cell viability was measured using the CellTiter-Glo 2.0 assay (Promega, Madison, WI). […]. The combination of EGFR TKIs and inhibitor of Formula (I) overcame acquired resistance to EGFR TKIs.
(§4) Cell viability assays were carried out by plating 1,000 cells per well of HCC827 or PC9 resistant cells, respectively, into white transparent-bottom 384-well plates. The cells were treated with each TKI across a 10-dose range from 1 nM to 10,000 nM. After 72 h of drug treatment, cell viability was measured using the CellTiter-Glo 2.0 assay (Promega, Madison, WI). […].

[3] = target: MER (Homo sapiens, UniProt Q12866); assay: Enzymatic kinase assay (ADP-Glo), MER; details: read-out: Enzymatic assay IC50 MER; Table 3; poly (Glu4, Tyr1) substrate, 60 min room temperature, ADP-GLO luminescence
[4] = target: AXL (Homo sapiens, UniProt P30530); assay: Enzymatic kinase assay (ADP-Glo), AXL; details: read-out: Enzymatic assay IC50 AXL; Table 3; poly (Glu4, Tyr1) substrate, 60 min room temperature, ADP-GLO luminescence
[5] = system: PC9/ER cells; assay: Cell viability assay (CellTiter-Glo 2.0), erlotinib-resistant PC9/ER cells; assay type: cell-based; details: read-out: Relative cell viability; IC50 PC9ER; Table 4; 72 h drug treatment, combinations of EGFR TKIs and inhibitor of Formula (I)
Source text: as §1, §2, §3, §4

[6] = system: HCC827/ER cells; assay: Cell viability assay (CellTiter-Glo 2.0), erlotinib-resistant HCC827/ER cells; assay type: cell-based, human; details: read-out: Relative cell viability; IC50 HCC827ER; Table 4; 72 h drug treatment, combinations of EGFR TKIs and inhibitor of Formula (I)
[7] = target: c-MET (Homo sapiens, UniProt P08581); assay: Enzymatic kinase assay (ADP-Glo), c-MET; details: read-out: Enzymatic assay IC50 c-MET; Table 3; poly (Glu4, Tyr1) substrate, 60 min room temperature, ADP-GLO luminescence

| IC50 [1] [µM] | IC50 [2] [µM] | IC50 [3] [µM] | IC50 [4] [µM] | IC50 [5] [µM] | IC50 [6] [µM] | IC50 [7] [µM] | SMILES |
| --- | --- | --- | --- | --- | --- | --- | --- |
| < 10 | < 10 | < 0.01 | < 0.01 | < 1 | < 1 | < 0.01 | CCn1cc(C(=O)Nc2ccc(Oc3ccnc(N)c3C#CCC3CCN(C)CC3)c(F)c2)c(=O)n(C2CCCCC2)c1=O |
| < 1 | < 10 | < 0.01 | < 0.01 | < 1 | < 1 | < 0.1 | CCn1cc(C(=O)Nc2ccc(Oc3ccnc(N)c3C#CC(C)(C)N3CCNCC3)c(F)c2)c(=O)n(C2CCCCC2)c1=O |
| < 1 | < 0.1 | < 0.01 | < 0.01 | < 1 | < 1 | < 0.1 | CCn1cc(C(=O)Nc2ccc(Oc3ccnc(N)c3C#CCN3CCOCC3)c(F)c2)c(=O)n(C2CCCCC2)c1=O |
